This data set can be described thus: Resist curing properties: lowest exposure quantity of a phenol resin/melamine negative resist film. The following applies: for Resist curing properties: 1 part photoacid generator in phenol resin/CYMEL 300 resist, film about 3 μm, PEB 10 minutes 120° C., 0.5% potassium hydroxide development; for Lowest exposure quantity: lowest exposure (365 nm) giving change in film thickness before and after development within 10%. The protocol: A resin solution of 75 parts of a phenol resin (“PHENOLITE TD 431” available from DIC Corporation), 25 parts of a melamine curing agent (“CYMEL 300” available from MITSUI CYANAMID Co., Ltd.), 1 part of a synthesized photoacid generator and 200 parts of propylene glycol monomethyl ether acetate (hereinafter, abbreviated as PGMEA) was applied on a glass substrate of 10 cm square under a condition of 10 seconds at 1000 rpm using a spin coater. Then, the applied film was dried under vacuum for 5 minutes at 25° C., after which the film was dried for 3 minutes on an 80° C. hot plate to form a resist film with a film thickness of about 3 μm. The whole face of this resist film was exposed with a prescribed dose of ultraviolet light having a wavelength limited by the L-34 filter (a filter cutting light with a wavelength less than 340 nm, available from Kenko Optical Co., Ltd.) using an ultraviolet irradiation device (HMW-661F-01 available from ORC MANUFACTURING CO., LTD.). In this connection, a wavelength of 365 nm was measured for the integrated exposure quantity. Then, the film was subjected to post exposure baking (PEB) for 10 minutes with a 120° C. fair wind dryer, after which the film was immersed for 30 seconds in a 0.5% potassium hydroxide solution to be subjected to development, washed immediately with water and dried.
The film thickness of this resist film was measured using a shape measuring microscope (super-depth shape measuring microscope VK-8550, available from KEYENCE CORPORATION).
In this context, the resist curing properties were evaluated according to the following criteria on the basis of the lowest exposure quantity with which a change in film thickness of the resist film before and after development of within 10% was attained.
◯: The lowest exposure quantity is 250 mJ/cm^2 or less. Δ: The lowest exposure quantity is greater than 250 mJ/cm^2 and 500 mJ/cm^2 or less. x: The lowest exposure quantity is greater than 500 mJ/cm^2.

`O=C(Cc1ccccc1)c1ccc2c3c(cccc13)C(=O)N(OS(=O)(=O)C(F)(F)F)C2=O` [Example A-4, 4-phenylacetyl-1,8-naphthalimide trifluoromethanesulfonate]: the Resist curing properties entry was “∘” and the Lowest exposure quantity is 75 mJ/cm^2.
Taken in the same sequence, the figures for `CC1(C)C2CC[C@@]1(CS(=O)(=O)ON1C(=O)c3cccc4cc(OC(=O)c5c(F)c(F)c(F)c(F)c5F)cc(c34)C1=O)C(=O)C2` [Example A-52, 3-pentafluorobenzoyloxy-1,8-naphthalimide-(+)-10-camphorsulfonate] were “∘” and 140 mJ/cm^2.
In turn, `O=C1c2cccc3c(C(F)(F)C(F)(F)C(F)(F)C(F)(F)C(F)(F)C(F)(F)C(F)(F)C(F)(F)F)ccc(c23)C(=O)N1OS(=O)(=O)C(F)(F)F` [Example A-17, 4-(heptadecafluoro-n-octyl)-1,8-naphthalimide trifluoromethanesulfonate] gave a Lowest exposure quantity of 260 mJ/cm^2.
On to `CC(C)(C)Cc1cc2c3c(cc(CC(C)(C)C)cc3c1)C(=O)N(OS(=O)(=O)c1c(F)c(F)c(F)c(F)c1F)C2=O` [Example A-34, 3,6-dineopentyl-1,8-naphthalimide pentafluorobenzenesulfonate], for which the Resist curing properties entry was “∘” and the Lowest exposure quantity worked out at 90 mJ/cm^2.
With `CC1(C)C2CCC1(CS(=O)(=O)ON1C(=O)c3cccc4c(Oc5cccc(C(F)(F)F)c5)ccc(c34)C1=O)C(=O)C2` (stereo not drawn) [Example A-46, 4-(3-trifluoromethylphenoxy)-1,8-naphthalimide-(+)-10-camphorsulfonate], the Resist curing properties result is “∘” and the Lowest exposure quantity amounted to 160 mJ/cm^2.
`CC1(C)C2CCC1(CS(=O)(=O)ON1C(=O)c3cccc4c(Br)ccc(c34)C1=O)C(=O)C2` (stereo not drawn) [Example A-60, 4-bromo-1,8-naphthalimide-(+)-10-camphorsulfonate]: the Resist curing properties entry is on record as “∘” and the Lowest exposure quantity is recorded as 250 mJ/cm^2.
On the same counts, the results for `CC1(C)C2CC[C@@]1(CS(=O)(=O)ON1C(=O)c3cccc4c(Sc5ccccc5)ccc(c34)C1=O)C(=O)C2` [Example A-47, 4-phenylthio-1,8-naphthalimide-(+)-10-camphorsulfonate] are “∘” and 210 mJ/cm^2.
On the same counts, the results for `CCCOc1ccc2c3c(cccc13)C(=O)N(OS(=O)(=O)C(F)(F)F)C2=O` [Example A-2, 4-n-propoxy-1,8-naphthalimide trifluoromethanesulfonate] are “∘” and 80 mJ/cm^2.
Consider `CC1(C)C2CCC1(CS(=O)(=O)ON1C(=O)c3cccc4c(Cl)ccc(c34)C1=O)C(=O)C2` (stereo not drawn) [Example A-59, 4-chloro-1,8-naphthalimide-(+)-10-camphorsulfonate], for which the Resist curing properties entry is “∘” and the Lowest exposure quantity turned out to be 240 mJ/cm^2.
Turning to `O=C1c2cccc3c(C(F)(F)C(F)(F)C(F)(F)C(F)(F)F)ccc(c23)C(=O)N1OS(=O)(=O)c1c(F)c(F)c(F)c(F)c1F` [Example A-36, 4-(nonafluorobutyl)-1,8-naphthalimide pentafluorobenzenesulfonate], the Lowest exposure quantity stood at 350 mJ/cm^2.
Turning to `CC1(C)C2CC[C@@]1(CS(=O)(=O)ON1C(=O)c3cccc4cc(OC(=O)c5ccccc5)cc(c34)C1=O)C(=O)C2` [Example A-51, 3-benzoyloxy-1,8-naphthalimide-(+)-10-camphorsulfonate], the Resist curing properties entry is “∘” and the Lowest exposure quantity worked out at 180 mJ/cm^2.
On the same counts, the results for `CCCOc1ccc2c3c(cccc13)C(=O)N(OS(=O)(=O)CC13CCC(CC1=O)C3(C)C)C2=O` (stereo not drawn) [Example A-42, 4-n-propoxy-1,8-naphthalimide-(+)-10-camphorsulfonate] are “∘” and 220 mJ/cm^2.
Turning to `O=C1c2cccc3c(Br)ccc(c23)C(=O)N1OS(=O)(=O)C(F)(F)F` [Example A-20, 4-bromo-1,8-naphthalimide trifluoromethanesulfonate], the Resist curing properties result is listed as “∘” and the Lowest exposure quantity is 90 mJ/cm^2.
Taken in the same sequence, the figures for `O=C1c2cc(C34CC5CC(CC(C5)C3)C4)cc3cc(C45CC6CC(CC(C6)C4)C5)cc(c23)C(=O)N1OS(=O)(=O)C(F)(F)F` [Example A-15, 3,6-diadamantyl-1,8-naphthalimide trifluoromethanesulfonate] were “∘” and 55 mJ/cm^2.
For `O=C(Oc1cc2c3c(cccc3c1)C(=O)N(OS(=O)(=O)C(F)(F)F)C2=O)c1c(F)c(F)c(F)c(F)c1F` [Example A-12, 3-pentafluorobenzoyloxy-1,8-naphthalimide trifluoromethanesulfonate], the Resist curing properties result is “∘” and the Lowest exposure quantity is 50 mJ/cm^2.
On the same counts, the results for `COc1cc2c3c(cccc3c1)C(=O)N(OS(=O)(=O)C[C@]13CCC(CC1=O)C3(C)C)C2=O` [Example A-48, 3-methoxy-1,8-naphthalimide-(+)-10-camphorsulfonate] are “∘” and 210 mJ/cm^2.
For the compound `O=C1c2cccc3c(C(F)(F)C(F)(F)C(F)(F)C(F)(F)F)ccc(c23)C(=O)N1OS(=O)(=O)C(F)(F)F` [Example A-16, 4-(nonafluorobutyl)-1,8-naphthalimide trifluoromethanesulfonate], the Lowest exposure quantity turned out to be 280 mJ/cm^2.
Take `CCCC(=O)Oc1cc2c3c(cccc3c1)C(=O)N(OS(=O)(=O)c1c(F)c(F)c(F)c(F)c1F)C2=O` [Example A-30, 3-butyroyloxy-1,8-naphthalimide pentafluorobenzenesulfonate]: the Resist curing properties entry is on record as “∘” and the Lowest exposure quantity came out at 100 mJ/cm^2.
Taken in the same sequence, the figures for `COc1cc2c3c(cccc3c1)C(=O)N(OS(=O)(=O)C(F)(F)F)C2=O` [Example A-8, 3-methoxy-1,8-naphthalimide trifluoromethanesulfonate] were “∘” and 75 mJ/cm^2.
Taken in the same sequence, the figures for `O=C1c2cccc3c(Br)ccc(c23)C(=O)N1OS(=O)(=O)c1c(F)c(F)c(F)c(F)c1F` [Example A-40, 4-bromo-1,8-naphthalimide pentafluorobenzenesulfonate] were “∘” and 180 mJ/cm^2.
For the compound `CC(C)(C)c1cc2c3c(cc(C(C)(C)C)cc3c1)C(=O)N(OS(=O)(=O)CC13CCC(CC1=O)C3(C)C)C2=O` (stereo not drawn) [Example A-53, 3,6-di-tert-butyl-1,8-naphthalimide-(+)-10-camphorsulfonate], the Resist curing properties result is recorded as “∘” and the Lowest exposure quantity was 130 mJ/cm^2.
On to `O=C1c2cccc3c(C(F)(F)C(F)(F)C(F)(F)C(F)(F)C(F)(F)C(F)(F)C(F)(F)C(F)(F)F)ccc(c23)C(=O)N1OS(=O)(=O)c1c(F)c(F)c(F)c(F)c1F` [Example A-37, 4-(heptadecafluoro-n-octyl)-1,8-naphthalimide pentafluorobenzenesulfonate], for which the Lowest exposure quantity worked out at 310 mJ/cm^2.
For `CCCC(=O)Oc1cc2c3c(cccc3c1)C(=O)N(OS(=O)(=O)C(F)(F)F)C2=O` [Example A-10, 3-butyroyloxy-1,8-naphthalimide trifluoromethanesulfonate], the Resist curing properties result is “∘” and the Lowest exposure quantity was found to be 55 mJ/cm^2.
With `CC(C)(C)c1cc2c3c(cc(C(C)(C)C)cc3c1)C(=O)N(OS(=O)(=O)C(F)(F)F)C2=O` [Example A-13, 3,6-di-tert-butyl-1,8-naphthalimide trifluoromethanesulfonate], the Resist curing properties result is “∘” and the Lowest exposure quantity is 45 mJ/cm^2.
For the compound `CCCC(=O)Oc1cc2c3c(cccc3c1)C(=O)N(OS(=O)(=O)CC13CCC(CC1=O)C3(C)C)C2=O` (stereo not drawn) [Example A-50, 3-butyroyloxy-1,8-naphthalimide-(+)-10-camphorsulfonate], the Resist curing properties entry was “∘” and the Lowest exposure quantity is 150 mJ/cm^2.
Taken in the same sequence, the figures for `O=C1c2cccc3c(Sc4ccccc4)ccc(c23)C(=O)N1OS(=O)(=O)C(F)(F)F` [Example A-7, 4-phenylthio-1,8-naphthalimide trifluoromethanesulfonate] were “∘” and 75 mJ/cm^2.
Taken in the same sequence, the figures for `O=C1c2cccc3c(Oc4c(F)c(F)c(F)c(F)c4F)ccc(c23)C(=O)N1OS(=O)(=O)c1c(F)c(F)c(F)c(F)c1F` [Example A-25, 4-pentafluorophenoxy-1,8-naphthalimide pentafluorobenzenesulfonate] were “∘” and 90 mJ/cm^2.
